{"source": "patent US9683019B2", "about": "(priority 2013, dated 2017)", "assay": "general procedure: Fmoc solid-phase peptide synthesis; 2-chlorotrityl chloride-PS-resin; Fmoc Rink-Amide-AM-PS-resin; BAL-AM-PS-resin", "conditions": "conjugation step, TFA salt", "note": "Some peptides are written in HELM: one residue between dots, names in brackets for other building blocks, links after the first $."}
{"substance": "PEPTIDE1{[pE].R.P.C.L.S.C.K.G.P.[D-Nle].[NHPhenethyl]}|CHEM1{[BCN-trz-PEG23-FA]}$PEPTIDE1,PEPTIDE1,4:R3-7:R3|PEPTIDE1,CHEM1,8:R3-1:R2$$$V2.0", "values": [{"measurement": "conjugation yield", "result": 21, "unit": "%"}]}
